Values from PubChem BioAssay AID652243 (Drosophila RNAi Screening Center, 2013).

Screen: 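Fly genes required for human androgen receptor driven transcription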 (primary screen)
Cell system: Drosophila S2R+ cells
Knock-down reagent: long dsRNA against Drosophila genes
Timing: 72 h (48 h, then 24 h hormone)
Conditions: synthetic androgen R1881 at 10 nM for 24 h
Detection: 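Per-well raw luminescence of the androgen-driven firefly reporter and of the Renilla control, two replicates each, without normalisation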
Reading the numbers: firefly reporter light: higher = more light from androgen-responsive reporter; Renilla control light: higher = more constitutive control signal (cell number, transfection)
Active means: 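Hit when the log firefly-to-Renilla ratio dropped or increased by a fixed fold versus the mean of GFP or LacZ controls across duplicate plates; lowering cut given as 1.5 and as 3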
Calls: active = hit: reporter lowered or raised; inactive = no hit
In all, the deposit lists about 24,000 reagents; below is an unselected part of those with a known target gene and a result. Of all reagents, 246 (1%) were called active. 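Plates not normalised; calls are printed but the firefly/Renilla ratio behind them is not deposited; fold cut for lowering reported inconsistently.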 Raw values vary from plate to plate and are shown uncorrected. Names joined by + are all predicted targets of the reagent. Not stated in the record: the amount of reagent.

no.	Target gene	dsRNA	firefly reporter light, replicate 1	firefly reporter light, replicate 2	Renilla control light, replicate 1	Renilla control light, replicate 2	activity call
1	CG13775 (GeneID 33975)	DRSC02279	1.73e5	1.61e5	1.32e6	1.17e6	inactive
2	CG13775 (GeneID 33975)	DRSC29121	5.85e5	4.84e5	1.07e6	8.81e5	inactive
3	Spp (GeneID 33227)	DRSC00328	6.11e5	6.33e5	1.54e6	1.32e6	inactive
4	smg (GeneID 39034)	DRSC11397	5.23e5	6.20e5	1.01e6	1.10e6	inactive
5	smg (GeneID 39034)	DRSC28033	3.36e5	3.90e5	9.06e5	7.26e5	inactive
6	CG31826 (GeneID 326164)	DRSC03357	1.40e5	1.58e5	1.82e6	2.21e6	inactive
7	Taf13 (GeneID 35297)	DRSC02106	1.66e5	1.34e5	1.26e6	1.11e6	inactive
8	dpn (GeneID 35800)	DRSC07605	2.18e5	2.73e5	1.32e6	1.03e6	inactive
9	dpn (GeneID 35800)	DRSC28443	2.57e5	6.44e5	4.53e5	1.24e6	inactive
10	CG30269 (GeneID 37600)	DRSC04158	3.22e5	3.59e5	2.34e6	1.86e6	inactive
11	up (GeneID 32314)	DRSC20382	20139	18896	2.69e5	2.15e5	inactive
12	up (GeneID 32314)	DRSC28798	2.87e5	2.71e5	9.38e5	1.09e6	inactive
13	CG14543 (GeneID 43167)	DRSC14887	1.65e5	2.88e5	2.28e6	2.63e6	inactive
14	CG14543 (GeneID 43167)	DRSC26647	4.22e5	3.57e5	5.24e5	6.22e5	inactive
15	TTLL3B (GeneID 33946)	DRSC02133	2.01e5	1.55e5	1.69e6	1.32e6	inactive
16	CG14662 + asRNA:CR43478	DRSC12248	48639	1.04e5	1.60e6	1.27e6	inactive
17	CG31010 (GeneID 318555)	DRSC14006	1.37e6	6.14e5	2.76e6	7.54e5	inactive
18	UK114 (GeneID 34897)	DRSC01973	1.73e5	1.91e5	2.28e6	2.44e6	inactive
19	Alr (GeneID 32991)	DRSC19469	2.69e5	1.10e5	7.01e5	2.82e5	inactive

Continued; the last 3 above are carried over.
no.	Target gene	dsRNA	firefly reporter light, replicate 1	firefly reporter light, replicate 2	Renilla control light, replicate 1	Renilla control light, replicate 2	activity call
17	CG31010 (GeneID 318555)	DRSC14006	1.37e6	6.14e5	2.76e6	7.54e5	inactive
18	UK114 (GeneID 34897)	DRSC01973	1.73e5	1.91e5	2.28e6	2.44e6	inactive
19	Alr (GeneID 32991)	DRSC19469	2.69e5	1.10e5	7.01e5	2.82e5	inactive
20	CG34007 (GeneID 3885610)	DRSC38908	9.96e5	7.44e5	1.93e6	1.27e6	inactive
21	Polr3E (GeneID 40325)	DRSC11880	1.82e5	1.66e5	2.50e6	2.05e6	inactive
22	Polr3E (GeneID 40325)	DRSC23914	1.07e6	6.84e5	1.18e6	5.63e5	inactive
23	CG33969 (GeneID 40252)	DRSC11777	2.68e5	1.86e5	2.28e6	2.39e6	inactive
24	Su(var)2-10 (GeneID 35927)	DRSC07721	2.15e6	1.50e6	2.48e6	1.27e6	inactive
25	Su(var)2-10 (GeneID 35927)	DRSC28335	7.86e5	7.85e5	9.27e5	1.27e6	inactive
26	CG30345 (GeneID 246553)	DRSC05144	2.00e5	2.23e5	3.46e5	3.52e5	inactive
27	Cyp313a2 (GeneID 41487)	DRSC16625	82013	85760	1.56e6	1.53e6	inactive
28	CG42855 (GeneID 10178866)	DRSC06161	94980	1.57e5	1.35e6	1.05e6	inactive
29	ppk27 (GeneID 38440)	DRSC08168	1.90e5	2.12e5	2.31e6	3.97e6	inactive
30	ppk27 (GeneID 38440)	DRSC22211	6.57e5	7.05e5	1.87e6	2.38e6	inactive
31	CR18166 (GeneID 8673968)	DRSC17260	8.45e5	7.78e5	5.75e5	3.61e5	inactive
32	CR18166 (GeneID 8673968)	DRSC18147	3.97e5	3.08e5	2.96e6	2.50e6	inactive
33	CR18166 (GeneID 8673968)	DRSC27717	2.27e5	2.51e5	1.86e5	6.32e5	inactive
34	CG15719 (GeneID 32249)	DRSC19685	6.16e5	5.80e5	2.62e6	3.11e6	inactive
35	CG31077 (GeneID 318583)	DRSC13805	1.17e5	1.58e5	2.04e5	3.51e5	inactive
36	CG31077 (GeneID 318583)	DRSC23916	6.64e5	4.60e5	6.86e5	7.59e5	inactive
37	Bet5 (GeneID 43590)	DRSC14600	2.08e5	2.24e5	2.19e6	2.28e6	inactive
38	Mrp5 (GeneID 42362)	DRSC15597	2.17e5	2.55e5	2.19e6	2.93e6	inactive
39	Mrp5 (GeneID 42362)	DRSC15598	3.44e5	2.82e5	1.68e6	1.99e6	inactive
40	Mrp5 (GeneID 42362)	DRSC25669	8.33e5	9.11e5	1.02e6	1.00e6	inactive
41	Cluap1 (GeneID 33142)	DRSC20637	6.07e5	6.20e5	1.55e6	1.30e6	inactive
42	Cluap1 (GeneID 33142)	DRSC23735	7.01e5	5.06e5	7.58e5	6.82e5	inactive
43	RpS26 (GeneID 35098)	DRSC03420	1.42e5	1.80e5	9.50e5	9.77e5	inactive
44	CG11600 (GeneID 41555)	DRSC14332	86963	89520	1.63e6	1.29e6	inactive
45	CG11600 (GeneID 41555)	DRSC24238	8.80e5	9.48e5	1.17e6	1.42e6	inactive
46	Corp (GeneID 31764)	DRSC17771	1.44e5	1.17e5	9.26e5	9.11e5	inactive
47	Corp (GeneID 31764)	DRSC24622	4.80e5	3.89e5	6.41e5	4.66e5	inactive
48	PDZ-GEF (GeneID 33881)	DRSC03231	1.21e5	1.31e5	1.60e6	1.34e6	inactive
49	mRpS25 (GeneID 32395)	DRSC19598	5.38e5	4.94e5	4.19e6	3.53e6	inactive
50	shu (GeneID 45360)	DRSC04484	7.59e5	7.26e5	1.74e6	1.80e6	inactive
51	shu (GeneID 45360)	DRSC27390	6.25e5	6.92e5	7.99e5	8.76e5	inactive
52	CG1231 (GeneID 38060)	DRSC08267	65565	69585	6.79e5	8.70e5	inactive
53	CG1231 (GeneID 38060)	DRSC27231	4.47e5	3.13e5	5.51e5	3.66e5	inactive
54	Sf3b3 (GeneID 38093)	DRSC08370	5.94e5	7.40e5	9.69e5	1.15e6	inactive
55	CG10799 (GeneID 36472)	DRSC06002	2.25e5	1.12e5	1.27e6	7.76e5	inactive
56	plx (GeneID 40704)	DRSC12260	46996	39228	1.21e6	1.31e6	inactive
57	plx (GeneID 40704)	DRSC12385	4.09e5	3.44e5	2.92e6	3.04e6	inactive
58	plx (GeneID 40704)	DRSC22683	9.04e5	8.32e5	2.13e6	1.73e6	inactive
59	plx (GeneID 40704)	DRSC28545	3.60e5	5.54e5	7.97e5	1.30e6	inactive
